Results deposited as PubChem BioAssay AID1053208 (Peter MacCallum Cancer Centre, 2014).
The whole screen tested about 17,000 reagents; this is a part drawn at random. Over the whole deposit, 788 (4.7%) were called active. 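Calls rest on z-score classes alone; an extra cut-off of viability at most 70% of control was not applied to them.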 Unmarked entries are inactive. Reagents against one gene are numbered here. Further read-outs or replicates are left out here. Reagent sequences are not shown.

Aim: 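Genes whose silencing cuts survival of bone tumour cells only with doxorubicin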 (primary screen)
Cells: mouse osteosarcoma cells, early-passage culture from an engineered mouse model of fibroblastic bone tumour
Reagent: siRNA pool against mouse genes, 40 nM
Timing: about 120 h (48 h before drug, then 72 h with drug)
Challenge: doxorubicin 100 nM for 72 h, roughly 30-40% inhibitory dose
Detection: 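Luminescent ATP signal taken as viability with or without 100 nM doxorubicin for 72 h; mean of two wells set against non-targeting siRNA and turned into robust z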
Direction: viability z-score with doxorubicin: higher = more viable cells under doxorubicin; viability z-score without drug: higher = more viable cells with knock-down alone
Hit rule: 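a pool counts as active when its viability z-score with doxorubicin is -2 or below and its z-score without drug lies between -2 and 2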

{"Target gene": "Gnpat (glyceronephosphate O-acyltransferase)", "pool no.": 1, "combined z-score class": "no change with or without drug", "viability z-score with doxorubicin": -1.46, "viability z-score without drug": -1.52}
{"Target gene": "Cdc42ep1 (CDC42 effector protein 1)", "pool no.": 1, "combined z-score class": "low cell count with doxorubicin only (active)", "viability z-score with doxorubicin": -2.7, "viability z-score without drug": -1.52}
{"Target gene": "Vps4b (vacuolar protein sorting 4B)", "pool no.": 1, "combined z-score class": "no change with or without drug", "viability z-score with doxorubicin": -0.67, "viability z-score without drug": 1.35}
{"Target gene": "Samhd1 (SAM domain and HD domain, 1)", "pool no.": 1, "combined z-score class": "no change with or without drug", "viability z-score with doxorubicin": -0.22, "viability z-score without drug": 0.17}
{"Target gene": "Cela3b (chymotrypsin-like elastase family, member 3B)", "pool no.": 1, "combined z-score class": "no change with or without drug", "viability z-score with doxorubicin": 0, "viability z-score without drug": 0.17}
{"Target gene": "Rsbn1 (rosbin, round spermatid basic protein 1)", "pool no.": 1, "combined z-score class": "no change with or without drug", "viability z-score with doxorubicin": 0.45, "viability z-score without drug": 1.52}
{"Target gene": "Tmem74 (transmembrane protein 74)", "pool no.": 1, "combined z-score class": "no change with or without drug", "viability z-score with doxorubicin": -0.56, "viability z-score without drug": -0.17}
{"Target gene": "Ddah2 (DDAH family member 2, ADMA independent)", "pool no.": 1, "combined z-score class": "no change with or without drug", "viability z-score with doxorubicin": 1.57, "viability z-score without drug": 0.67}
{"Target gene": "Ptgds (prostaglandin D2 synthase (brain))", "pool no.": 1, "combined z-score class": "no change with or without drug", "viability z-score with doxorubicin": 0.11, "viability z-score without drug": 1.01}
{"Target gene": "Catsper4 (cation channel, sperm associated 4)", "pool no.": 1, "combined z-score class": "no change with or without drug", "viability z-score with doxorubicin": -0.22, "viability z-score without drug": -0.17}

The list goes on (4 carried over from the part before).
{"Target gene": "Tmem74 (transmembrane protein 74)", "pool no.": 1, "combined z-score class": "no change with or without drug", "viability z-score with doxorubicin": -0.56, "viability z-score without drug": -0.17}
{"Target gene": "Ddah2 (DDAH family member 2, ADMA independent)", "pool no.": 1, "combined z-score class": "no change with or without drug", "viability z-score with doxorubicin": 1.57, "viability z-score without drug": 0.67}
{"Target gene": "Ptgds (prostaglandin D2 synthase (brain))", "pool no.": 1, "combined z-score class": "no change with or without drug", "viability z-score with doxorubicin": 0.11, "viability z-score without drug": 1.01}
{"Target gene": "Catsper4 (cation channel, sperm associated 4)", "pool no.": 1, "combined z-score class": "no change with or without drug", "viability z-score with doxorubicin": -0.22, "viability z-score without drug": -0.17}
{"Target gene": "Rpl27 (ribosomal protein L27)", "pool no.": 1, "combined z-score class": "low cell count with and without drug", "viability z-score with doxorubicin": -3.82, "viability z-score without drug": -6.24}
{"Target gene": "Pde6c (phosphodiesterase 6C, cGMP specific, cone, alpha prime)", "pool no.": 1, "combined z-score class": "no change with or without drug", "viability z-score with doxorubicin": 0.67, "viability z-score without drug": -0.51}
{"Target gene": "Galnt7 (polypeptide N-acetylgalactosaminyltransferase 7)", "pool no.": 1, "combined z-score class": "no change with or without drug", "viability z-score with doxorubicin": 1.01, "viability z-score without drug": 0.51}
{"Target gene": "Dctn4 (dynactin 4)", "pool no.": 1, "combined z-score class": "no change with or without drug", "viability z-score with doxorubicin": 1.12, "viability z-score without drug": -0.51}
{"Target gene": "Pramel4 (PRAME like 4)", "pool no.": 1, "combined z-score class": "no change with or without drug", "viability z-score with doxorubicin": 0.22, "viability z-score without drug": -0.51}
{"Target gene": "Pramel4 (PRAME like 4)", "pool no.": 2, "combined z-score class": "no change with or without drug", "viability z-score with doxorubicin": 0.34, "viability z-score without drug": 0.51}
{"Target gene": "Zfp946 (zinc finger protein 946)", "pool no.": 1, "combined z-score class": "no change with or without drug", "viability z-score with doxorubicin": 1.01, "viability z-score without drug": 0.34}
{"Target gene": "Dao (D-amino acid oxidase)", "pool no.": 1, "combined z-score class": "no change with or without drug", "viability z-score with doxorubicin": -0.11, "viability z-score without drug": -0.34}
{"Target gene": "Ust (uronyl-2-sulfotransferase)", "pool no.": 1, "combined z-score class": "no change with or without drug", "viability z-score with doxorubicin": 0, "viability z-score without drug": 0.34}
{"Target gene": "Trit1 (tRNA isopentenyltransferase 1)", "pool no.": 1, "combined z-score class": "no change with or without drug", "viability z-score with doxorubicin": -0.56, "viability z-score without drug": 1.35}
{"Target gene": "Nfyc (nuclear transcription factor-Y gamma)", "pool no.": 1, "combined z-score class": "no change with or without drug", "viability z-score with doxorubicin": 1.12, "viability z-score without drug": -0.34}
{"Target gene": "Vasn (vasorin)", "pool no.": 1, "combined z-score class": "no change with or without drug", "viability z-score with doxorubicin": 0.45, "viability z-score without drug": 1.18}
{"Target gene": "Sv2b (synaptic vesicle glycoprotein 2b)", "pool no.": 1, "combined z-score class": "no change with or without drug", "viability z-score with doxorubicin": 0, "viability z-score without drug": -0.34}
{"Target gene": "Neu1 (neuraminidase 1)", "pool no.": 1, "combined z-score class": "no change with or without drug", "viability z-score with doxorubicin": 0.67, "viability z-score without drug": 0.34}
{"Target gene": "Itga11 (integrin alpha 11)", "pool no.": 1, "combined z-score class": "no change with or without drug", "viability z-score with doxorubicin": -1.57, "viability z-score without drug": -0.84}
{"Target gene": "Or5au1 (olfactory receptor family 5 subfamily AU member 1)", "pool no.": 1, "combined z-score class": "no change with or without drug", "viability z-score with doxorubicin": 0.22, "viability z-score without drug": -0.51}
{"Target gene": "Rab22a (RAB22A, member RAS oncogene family)", "pool no.": 1, "combined z-score class": "no change with or without drug", "viability z-score with doxorubicin": 0.67, "viability z-score without drug": 0.51}
{"Target gene": "Dmtn (dematin actin binding protein)", "pool no.": 1, "combined z-score class": "no change with or without drug", "viability z-score with doxorubicin": 0, "viability z-score without drug": -0.51}
